Data as given in article doi:10.1101/2021.11.03.467147.
Where two headings read alike, the source gives them in different places. No constants are given. Whether binding was seen depends on the method and setting. Some entries that bind do so weakly or less than the wild type. Tags and fused reporters may be left off the sequences shown.

By UniProt entry, the sequences of proteins in these tests, tags left out.
UniProt Q12306: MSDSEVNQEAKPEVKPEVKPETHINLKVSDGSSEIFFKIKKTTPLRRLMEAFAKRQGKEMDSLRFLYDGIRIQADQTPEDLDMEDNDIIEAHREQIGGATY

Columns and labels:
Experiment in all cases: two-hybrid
[1] = target: T1, BD-Chinmo^STOP (Drosophila melanogaster) (UniProt Q9VQ30)
T1 sequence: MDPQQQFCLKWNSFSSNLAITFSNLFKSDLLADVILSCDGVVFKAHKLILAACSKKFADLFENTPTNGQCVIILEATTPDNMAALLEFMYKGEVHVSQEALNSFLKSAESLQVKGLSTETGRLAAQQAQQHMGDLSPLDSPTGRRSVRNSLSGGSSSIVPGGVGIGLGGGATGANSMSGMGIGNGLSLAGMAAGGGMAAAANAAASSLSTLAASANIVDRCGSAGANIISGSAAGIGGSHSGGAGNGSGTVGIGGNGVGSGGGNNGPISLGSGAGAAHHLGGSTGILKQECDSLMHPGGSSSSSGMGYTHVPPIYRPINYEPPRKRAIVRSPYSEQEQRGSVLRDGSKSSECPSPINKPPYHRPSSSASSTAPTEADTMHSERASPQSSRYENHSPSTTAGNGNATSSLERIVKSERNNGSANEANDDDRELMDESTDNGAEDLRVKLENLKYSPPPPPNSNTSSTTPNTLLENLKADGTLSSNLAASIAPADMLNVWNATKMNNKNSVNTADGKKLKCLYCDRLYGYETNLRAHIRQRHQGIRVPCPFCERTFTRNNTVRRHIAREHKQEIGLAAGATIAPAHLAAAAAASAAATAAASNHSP

[2] = target: T2, BD-Chinmo^native (Drosophila melanogaster) (UniProt Q9VQ30)
T2 sequence: T1 sequence

[3] = target: T1, BD-Chinmo^STOP (Drosophila melanogaster); remark: listed apart in the source
[4] = target: T2, BD-Chinmo^native (Drosophila melanogaster); remark: listed apart in the source
[5] = target: T1, BD-Chinmo^STOP (Drosophila melanogaster); remark: listed apart in the source
[6] = target: T2, BD-Chinmo^native (Drosophila melanogaster); remark: listed apart in the source

Measured: binding

AD-SUMO (ScSmt3 from yeast) (from UniProt Q12306 1-101)
binds: all assays above
